Among all 400,000 compounds or so, about 13,000 (3.2%) were called active. The inconclusive results got no clear call from the source; some entries with a clear call stand among them for comparison. Calls follow the shape of the dose curve; as a rule, active = well fitted cell-killing curve with a large enough effect; inconclusive = small, poorly fitted or top-dose-only effect, or effect the other way; inactive = flat fitted curve, though single readings scatter. Potencies beside an inconclusive call are fits to weak or partial responses and may not hold up.
Assay: qHTS assay for MDR1-selective chemotherapeutics: Primary screen using the drug-selected MDR subline cells KB-V1; also: nearly all actives have a fitted effect of over 60% in size
Conditions: KB-V1 MDR cells viability, CellTiter-Glo, 72 h; activity change, negative = cytotoxicity: at 46.1 µM (top of the series)
Procedure, shortened: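 Compound-treated KB-V1 multidrug-resistant cells, 72 h, 37 degrees C; viability by CellTiter-Glo. Fitted qHTS curves give the values.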
% is scaled to controls: 0 for no effect and ±100 for the full control effect; potency is read from the fitted curve at half-maximal effect.

SMILES	Potency	activity change, negative = cytotoxicity
CCOc1ccc(CCNC(=O)CCC(=O)N2CCOc3ccc(C)cc32)cc1OCC	inactive	–
c1ccc(N2CCN(Cc3cnc(N4CCOCC4)s3)CC2)cc1	active: 13 µM	–
CC(C)Cn1cnc2c1c(=O)n(CC(=O)NC(=O)NC(C)(C)C)c(=O)n2Cc1ccccc1	inconclusive: 9.2 µM [cytotoxic, partial curve]	–
O=C1NC2=C(C(=O)CCC2)C(c2cccc([N+](=O)[O-])c2)N1 (stereo not given)	inactive	–
Cc1ccc(C)c(OCC(=O)NCC(C)C)c1C	inactive	–
Nc1c(C(=O)O)sc2nc(-c3ccccc3)cc(-c3ccc(Cl)cc3)c12	inconclusive: 11.6 µM [rising, partial curve, poor fit]	–
c1ccc2c(c1)CC/C2=N/Nc1nc2ccccc2[nH]1	inconclusive: 8.2 µM [cytotoxic, partial curve]	–
CCOc1ccc(NC(=O)CCn2cccn2)cc1	inactive	–
Cc1cc(Nc2ccc(F)cc2)nc(N)n1	inconclusive: 18.4 µM [cytotoxic, partial curve, poor fit]	–
Cc1cnc(C(=O)OCC(=O)Nc2ccc(Br)c(C)c2)cn1	inactive	–
Cc1cccc(S(=O)(=O)N(C)C[C@@H]2OCc3cnnn3CCCC(=O)N([C@@H](C)CO)C[C@@H]2C)c1	inactive	–
CCOC(=O)CNC(=S)N(Cc1ccccc1)Cc1cccs1	inconclusive: 32.6 µM [cytotoxic, single point]	–
Cc1cc(C(=O)OCC(=O)NC2CCS(=O)(=O)C2)c(C)n1-c1ccccc1 (stereo not given)	active: 16.4 µM	–
CN(C)S(=O)(=O)N1CCN(CC(O)COc2ccc3cc(Br)ccc3c2)CC1 (stereo not given)	inconclusive: 20.6 µM [cytotoxic, single point]	–
COc1ccc(NC(=O)Cc2ccc(C)cc2)cc1S(=O)(=O)N1CCCCC1	inconclusive: 29.1 µM [cytotoxic, single point]	–
C=CCN(CC=C)C(=S)NC(=O)c1ccc(C)c(Br)c1	inconclusive: 29.1 µM [cytotoxic, single point]	–
COc1cccc(C(C(=O)NC2CCCC2)N2CCN(c3cc(C)nc4ccccc34)CC2)c1OC (stereo not given)	inconclusive: 7.31 µM [cytotoxic, partial curve]	–
CS(=O)(=O)N(CC(=O)NCc1ccncc1)c1ccc(F)c(Cl)c1	inconclusive: 14.6 µM [rising, partial curve, poor fit]	–
CCOC(=O)CSc1nc(-c2ccc3c(c2)OCO3)ccc1C#N	inconclusive: 23.1 µM [rising, single point]	–
CSc1nc(=S)cc(C)[nH]1	inactive	–
COc1ccc(C(=O)/C=C/c2cccnc2)c(OC)c1	inconclusive: 29.1 µM [cytotoxic, single point]	–
O=C(Nc1ccc(Br)cc1)C1CCN(c2ncccn2)CC1	inactive	–
COc1ccc(CNC(=O)c2ccc(-c3ccc(F)c(F)c3)c3ccoc23)cc1OC	inconclusive: 8.2 µM [cytotoxic, partial curve]	–

Of the compounds above, 2 contain a Cl atom.
SMILES	Potency	activity change, negative = cytotoxicity
Nc1c(C(=O)O)sc2nc(-c3ccccc3)cc(-c3ccc(Cl)cc3)c12	inconclusive: 11.6 µM [rising, partial curve, poor fit]	–
CS(=O)(=O)N(CC(=O)NCc1ccncc1)c1ccc(F)c(Cl)c1	inconclusive: 14.6 µM [rising, partial curve, poor fit]	–

Additional entries follow:

SMILES	Potency	activity change, negative = cytotoxicity
N=c1c2c(ncn1Cc1ccco1)Oc1c(ccc3ccccc13)C2c1ccccc1 (stereo not given)	inconclusive: 29.1 µM [cytotoxic, single point]	–
O=C(Cc1ccccc1F)Nc1cccc2cccnc12	inconclusive: 23.1 µM [cytotoxic, single point]	–
COc1ccc(-c2nc3n(c2C)Cc2ccccc2-3)cc1	inconclusive: 20.6 µM [cytotoxic, single point]	–
CCCCOc1ncnc2c1[nH]c1ccc(OC)cc12	inactive	–
Cc1cc(/C=C2/NC(=O)NC2=O)c(C)n1-c1ccccn1	inconclusive: 32.6 µM [cytotoxic, single point]	–
COC(=O)c1nc2n(n1)C(c1cc(OC)ccc1OC)C=C(c1ccc(Br)cc1)N2 (stereo not given)	inconclusive: 25.9 µM [cytotoxic, single point]	–
CC1CN(C2CCCCC2)c2nc3c(c(=O)[nH]c(=O)n3C)n2C1 (stereo not given)	inconclusive: 7.31 µM [cytotoxic, partial curve]	–
CC(C)NC(=O)/C(=C/c1cn(-c2ccccc2)nc1-c1cccc([N+](=O)[O-])c1)NC(=O)c1ccccc1	inconclusive: 29.1 µM [cytotoxic, partial curve, poor fit]	–
CCOc1cc(NC(=S)NCCCN2CCOCC2)c(OCC)cc1NC(=O)C1CCCCC1	inconclusive: 29.1 µM [rising, single point]	–
CCCC(O)(CCC)C(=O)NNc1ccc(C)cc1	–	inconclusive: 21.8%
O=C(NCc1cccnc1)c1ccccc1-c1nc(-c2ccccc2)no1	inconclusive: 14.6 µM [cytotoxic, partial curve, poor fit]	–
N=C1S/C(=C\c2ccccc2)C(=O)N1c1ccc(F)cc1	inconclusive: 20.6 µM [rising, single point]	–
COC(=O)C1=CO[C@@H](OC2OC(CO)C(O)C(O)C2O)[C@@H]2C(CO)=CC[C@H]12 (stereo not given in full)	–	inconclusive: 36.3%
Oc1ccc(Br)cc1CNc1cnc2ccccc2c1	inconclusive: 20.6 µM [cytotoxic, single point]	–
Cc1ccc(N2CC(C(=O)Nc3nnc(SCCC4OCCO4)s3)CC2=O)cc1 (stereo not given)	inconclusive: 3.26 µM [cytotoxic, partial curve, poor fit]	–
O=C(Nc1ccccc1)O[C@@H]1C[C@H]2CCCC(=O)N3CC[C@@H](C1)[C@@H]23	inconclusive: 14.6 µM [cytotoxic, partial curve, poor fit]	–
Nc1nc2cc3ccccc3cc2[nH]c1=O	active: 3.66 µM	–
COc1ccc(Cl)cc1NC(=O)c1cnc(N2CCCCC2)c2ccccc12	inactive	–
COc1ccc(/C=N/NC(=O)c2cccc(COCC(F)(F)C(F)F)c2)cc1	active: 23.1 µM	–
COc1ccc(NC(C)=O)cc1CNC(=O)COc1ccccc1C(=O)Nc1cccc(C)c1C	inconclusive: 16.4 µM [rising, partial curve]	–
CCOC(=O)Cn1c(=O)c2c(nc(Br)n2Cc2ccccc2Cl)n(C)c1=O	inconclusive: 29.1 µM [cytotoxic, single point]	–
CC(c1ccccc1)N(CC(=O)NC1CCCCC1)S(=O)(=O)c1cccc(C(F)(F)F)c1 (stereo not given)	inconclusive: 7.31 µM [cytotoxic, partial curve]	–

— PubChem BioAssay AID1347076 (National Center for Advancing Translational Sciences (NCATS), 2019)
